In PubChem BioAssay (Tox21):
Where “and” joins values, the source holds several entries; their conditions need not be identical. Equal values may be shown once. Inconclusive means that the source gave no clear call. Such entries were picked first, then a sample of the others. Potencies beside an inconclusive call are fits to weak or partial responses and may not hold up. Where a structure was tested more than once in an assay, its records may differ in their call. Calls of active or inactive are those of the source. The call rests on the fitted dose curve; in most records, active means well fitted inhibition curve with a large enough effect in the repeat runs; inconclusive means weak or mixed curves; inactive means no such curve, though single readings can be large or run the other way.

Sequences of proteins named here, by UniProt entry; tags and fusion partners are left off.
UniProt P10635, whole entry, looked up: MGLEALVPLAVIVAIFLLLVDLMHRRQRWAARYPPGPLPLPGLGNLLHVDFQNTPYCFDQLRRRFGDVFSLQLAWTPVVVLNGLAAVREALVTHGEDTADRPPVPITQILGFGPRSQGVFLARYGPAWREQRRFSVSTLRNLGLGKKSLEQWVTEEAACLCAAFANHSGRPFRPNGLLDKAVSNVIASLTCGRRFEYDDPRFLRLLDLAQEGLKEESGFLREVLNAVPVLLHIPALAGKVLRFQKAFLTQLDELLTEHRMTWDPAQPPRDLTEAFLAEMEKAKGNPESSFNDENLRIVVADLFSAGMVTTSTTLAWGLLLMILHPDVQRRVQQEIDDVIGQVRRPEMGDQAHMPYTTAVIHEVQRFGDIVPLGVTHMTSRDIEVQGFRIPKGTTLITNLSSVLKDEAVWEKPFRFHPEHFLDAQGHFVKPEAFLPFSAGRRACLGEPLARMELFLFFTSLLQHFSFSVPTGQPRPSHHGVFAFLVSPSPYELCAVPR
UniProt P33261, whole entry, looked up: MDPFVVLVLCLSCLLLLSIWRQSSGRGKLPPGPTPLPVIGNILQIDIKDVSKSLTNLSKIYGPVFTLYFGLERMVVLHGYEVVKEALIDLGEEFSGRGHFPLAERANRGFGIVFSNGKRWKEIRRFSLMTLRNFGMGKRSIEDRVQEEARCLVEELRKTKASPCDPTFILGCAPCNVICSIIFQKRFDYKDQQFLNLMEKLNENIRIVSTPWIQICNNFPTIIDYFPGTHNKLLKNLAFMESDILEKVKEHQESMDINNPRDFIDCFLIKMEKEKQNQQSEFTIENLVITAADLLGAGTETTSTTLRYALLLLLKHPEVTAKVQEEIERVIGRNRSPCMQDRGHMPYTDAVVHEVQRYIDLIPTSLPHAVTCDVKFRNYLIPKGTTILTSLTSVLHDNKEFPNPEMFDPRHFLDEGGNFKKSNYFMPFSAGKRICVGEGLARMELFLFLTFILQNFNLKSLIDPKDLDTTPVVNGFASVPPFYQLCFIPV
UniProt P11712, whole entry, looked up: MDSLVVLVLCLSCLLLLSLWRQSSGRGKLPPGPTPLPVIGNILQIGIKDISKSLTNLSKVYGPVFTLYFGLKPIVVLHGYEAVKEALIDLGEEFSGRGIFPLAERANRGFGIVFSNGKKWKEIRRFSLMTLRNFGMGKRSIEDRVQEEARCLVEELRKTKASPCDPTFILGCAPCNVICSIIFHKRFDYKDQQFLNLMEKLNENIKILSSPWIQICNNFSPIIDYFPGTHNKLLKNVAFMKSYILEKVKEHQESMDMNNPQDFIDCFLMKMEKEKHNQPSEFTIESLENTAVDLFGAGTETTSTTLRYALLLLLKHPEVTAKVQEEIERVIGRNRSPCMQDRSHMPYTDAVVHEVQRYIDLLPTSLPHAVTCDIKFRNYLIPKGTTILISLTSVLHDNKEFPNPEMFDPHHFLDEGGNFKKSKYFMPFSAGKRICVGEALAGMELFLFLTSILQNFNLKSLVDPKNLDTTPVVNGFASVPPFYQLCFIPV

Molecular target: Cytochrome P450 2D6 (Homo sapiens) (UniProt P10635)
Assay: Cytochrome P450 Family 2 Subfamily D Member 6 (CYP2D6) small molecule antagonists: luciferase reporter qHTS assay (AID 1671196); further: nearly all actives have a fitted effect of over 50% in size
Settings: P450-Glo CYP2D6 enzyme assay, luciferin luminescence, 1 h; series mostly up to 115 µM
Summary of the method: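 Quantitative HTS of Tox21 chemicals against CYP2D6 using a luminescent proluciferin substrate. After NADPH addition, 1 h room-temperature reaction; luminescence recorded 20 min post detection reagent.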
On the % scale 0 is the no-effect control and ±100 the full control effect; potency means the concentration at half of the fitted maximal effect.

Structure (SMILES) | Potency
CCCC(=O)O[C@]1(C(=O)CC)CC[C@H]2[C@@H]3CCC4=CC(=O)CC[C@]4(C)[C@H]3[C@@H](O)C[C@@]21C | inconclusive: 12.3 µM [inhibitor, partial curve]
C[C@H]1NCc2cc(-c3ccc4c(=O)c(C(=O)O)cn(C5CC5)c4c3OC(F)F)ccc21 | inconclusive: 19 µM [inhibitor, single point]
CCCCCCC(C)(C)S | inactive
C=C[Si](OC(C)=O)(OC(C)=O)OC(C)=O | inconclusive: 39.9 µM [inhibitor, partial curve]
CCCCCc1ccco1 | inconclusive: 46.3 µM [inhibitor, partial curve, poor fit]
OCCc1ccccc1 | inconclusive: 39.9 µM [inhibitor, partial curve]
COC(C)OC | inactive
CC(=O)/C=C/c1ccco1 | inactive
Nc1cc([N+](=O)[O-])ccc1C(=O)O | inconclusive: 71 µM [inhibitor, partial curve, poor fit]
CC(N=C(NC#N)Nc1ccncc1)C(C)(C)C (stereo unspecified) | inconclusive: 17.4 µM [inhibitor, full curve, poor fit]
C=CCn1c(=O)n(CC=C)c(=O)n(CC=C)c1=O | inconclusive: 63.1 µM [inhibitor, partial curve]
CCCCCCCC | inconclusive: 44.5 µM [inhibitor, partial curve]
CCCCC(CC)COC(=O)C(C#N)=C(c1ccccc1)c1ccccc1 (stereo unspecified) | active: 5.03 µM and active: 5.49 µM

Molecular target: Cytochrome P450 2C19 (Homo sapiens) (UniProt P33261)
Assay: Cytochrome P450 Family 2 Subfamily C Member 19 (CYP2C19) small molecule antagonists: luciferase reporter qHTS assay (AID 1671197); further: nearly all actives have a fitted effect of over 65% in size
Settings: P450-Glo CYP2C19 enzyme, luciferin luminescence, 1 h; series mostly up to 115 µM
Summary of the method: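 CYP2C19 P450-Glo, 1536-well qHTS. Cpd + enzyme/proluciferin substrate 10 min RT; + NADPH regen, 37C 1 h; stop with luciferin detection reagent, 20 min RT, luminescence (RLU). Pos ctrl ketoconazole.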

Structure (SMILES) | Potency | activity change, negative = inhibition
CCCCCCCCCCCCCCCCCCOCC(O)CO (stereo unspecified) | inactive | 
CCCC(=O)O[C@]1(C(=O)CC)CC[C@H]2[C@@H]3CCC4=CC(=O)CC[C@]4(C)[C@H]3[C@@H](O)C[C@@]21C | inconclusive: 15.5 µM [inhibitor, single point] | 
CCNc1ccccc1 | inconclusive: 89.4 µM [inhibitor, single point] | 
CCCCCc1ccco1 | active: 32.8 µM | 
NCCCCCCN | inactive and inconclusive: 89.4 µM [inhibitor, single point] | 
CCCCCCCCCCCCCCCCBr |  | inactive: 0.164% [at 23.6 µM]
O=C(O)CO | inactive | 
CC[N+](CC)(CC)CCOC(=O)C(C1CCCC1)C1CCCC1 | inconclusive: 43.6 µM [inhibitor, single point] | 
O=S(=O)(O)c1ccccc1O | inconclusive: 71 µM [inhibitor] | 
Nc1cc([N+](=O)[O-])ccc1C(=O)O | inactive | 
CC(C)(C)NCC(O)COc1ccccc1OCC1CCCO1 (stereo unspecified) | inactive | 
COc1ccc(O)cc1 | inconclusive: 31.7 µM [inhibitor, full curve, poor fit] | 
Cc1c(O)cccc1O | inconclusive: 91.5 µM [inhibitor, single point] | 
CCCCCCCC | inactive | 
CCCCC(CC)COC(=O)C(C#N)=C(c1ccccc1)c1ccccc1 (stereo unspecified) | inconclusive: 8.71 µM [inhibitor, full curve, poor fit] | 

Record cards, as listed above.
NCCCCCCN in the list: Potency: inactive and inconclusive: 89.4 µM [inhibitor, single point]
CC[N+](CC)(CC)CCOC(=O)C(C1CCCC1)C1CCCC1 in the list: Potency: inconclusive: 43.6 µM [inhibitor, single point]

Molecular target: Cytochrome P450 2C9 (Homo sapiens) (UniProt P11712)
Assay: Cytochrome P450 Family 2 Subfamily C Member 9 (CYP2C9) small molecule antagonists: luciferase reporter qHTS assay (AID 1671198); further: nearly all actives have a fitted effect of over 50% in size
Settings: P450-Glo CYP2C9 enzyme assay, luciferin luminescence; series mostly up to 115 µM
Summary of the method: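 P450-Glo proluciferin substrate with CYP2C9 enzyme; 10 min RT preincubation, then NADPH regeneration 1 h at 37C; luciferin detection reagent 20 min RT, luminescence in relative luminescence units.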

Structure (SMILES) | Potency
Nc1ccc(C(=O)O)c(O)c1 | inactive
C=C[Si](OC(C)=O)(OC(C)=O)OC(C)=O | inactive
CCNc1ccccc1 | inconclusive: 40.6 µM [inhibitor] and inconclusive: 79.6 µM [inhibitor, partial curve, poor fit]
COC(C)OC | inactive
NCCCCCCN | inconclusive: 71.6 µM [inhibitor] and inactive
CCCCCCOC(=O)C(C)CC (stereo unspecified) | inactive
CCSC(=O)N(CC(C)C)CC(C)C | inactive
CC(=O)/C=C/c1ccco1 | inactive
C/C=C(C)/C=C/C=C(C)C | inconclusive: 70.2 µM [inhibitor, partial curve] and inconclusive: 63.3 µM [inhibitor, partial curve]
Nc1cc([N+](=O)[O-])ccc1C(=O)O | inconclusive: 81.3 µM [inhibitor, single point] and inactive
CCOC(=O)C(C)O (stereo unspecified) | inactive
C=CCn1c(=O)n(CC=C)c(=O)n(CC=C)c1=O | inconclusive: 70.7 µM [inhibitor, single point]
C1COC(NC(C2CC2)C2CC2)=N1 | inactive
CCCC(O)C(CC)CO (stereo unspecified) | inactive
COc1ccc(O)cc1 | inconclusive: 38.5 µM [inhibitor, partial curve, poor fit]
Cc1c(O)cccc1O | inconclusive: 36.4 µM [inhibitor, partial curve, poor fit]
Cc1cc2nc3ccc(=[N+](C)C)cc-3sc2cc1N | active: 19.5 µM
CCCCC(CC)COC(=O)C(C#N)=C(c1ccccc1)c1ccccc1 (stereo unspecified) | active: 2.83 µM and active: 3.09 µM
